Reference: PubChem BioAssay AID504834 (National Center for Advancing Translational Sciences (NCATS), 2011)
The campaign covered roughly 320,000 compounds. About 22,000 (6.9%) were called active. Inconclusive results, whose numbers are uncertain, are shown with a selection of clear calls. Calls come from the whole dose curve; as a rule, active = well fitted inhibition curve with a large enough effect; inconclusive = small, poorly fitted or top-dose-only effect, or another doubt; inactive = no such curve, though single readings can be large or run the other way. Potencies beside an inconclusive call are fits to weak or partial responses and may not hold up.

test: Primary qHTS for delayed death inhibitors of the malarial parasite plastid, 96 hour incubation; details: P. falciparum luciferase reporter growth; series mostly up to 28.7 µM; activity change, negative = inhibition: at the top concentration
Summary of the method: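 Readout is luminescence from an integrated firefly luciferase in P. falciparum. Red cells, 2% hematocrit and 0.05% parasitemia final, were cultured with compound through two parasite generations (96 hours) at 37 C, 5% CO2.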
% is set by controls: 0 for no effect and ±100 for the full control effect; potency is the fitted concentration of half-maximal effect.

SMILES	Potency	activity change, negative = inhibition
OCCNc1nc(Nc2cccc(O)c2)nc2ccccc12	active: 0.104 µM	
CCn1c(CNc2ccc(C)cc2)nnc1SCC(N)=O	inconclusive: 18.5 µM [inhibitor, single point]	
COC(=O)c1sccc1NC(=O)CSCCc1ccccn1		inactive: 4.94%
CC(C)CC(C(=O)NC(C)(C)C)N(Cc1ccccc1Cl)C(=O)c1snc(C(N)=O)c1N (stereo not given)	inconclusive: 18.5 µM [inhibitor, single point]	
CCN(CC)C(=S)S	inconclusive: 16.9 µM [inhibitor, single point]	
CCOC(=O)C(=CN=C(N)Nc1nc2ccccc2o1)C(=O)OCC	active: 10.4 µM	
OC(COc1ccccc1)CN1CCN(CC(O)COc2ccccc2)CC1 (stereo not given)		inactive: 16.9%
Cc1cc(C)n(-c2ccn(Cc3ccc(Cl)cc3Cl)c(=O)n2)n1	inconclusive: 13.1 µM [inhibitor, partial curve]	
CCOC(=O)c1sc2nccc(N(C)C)c2c1N=CNOCc1ccccc1	inconclusive: 8.28 µM [inhibitor, partial curve, poor fit]	
Cc1ccc(C)c(-n2nnnc2SCC(=O)Nc2cccc(-c3nnc4n3CCCCC4)c2)c1	inconclusive: 4.15 µM [inhibitor, single point]	
COc1ccccc1NC(=O)C(Sc1ccccc1)c1ccccc1 (stereo not given)	inconclusive: 18.5 µM [inhibitor, single point]	
COc1cc(CNC2CCCCCCC2)cc(Cl)c1OCC(N)=O	inconclusive: 18.5 µM [inhibitor, single point]	
COc1cc(OC)c(NC(=O)C2CCCO2)cc1Cl (stereo not given)	inconclusive: 20.8 µM [inhibitor, single point]	
COc1cccc(CC(=O)OCC(=O)Nc2c(C)nn(-c3ccccc3)c2C)c1		inactive: 1.66%
CS(=O)(=O)Nc1cccc2cccnc12		inactive: 1.15%
COc1ccc(-c2cc(-c3ccc(O)cc3)nc(N)c2C#N)cc1OC	inconclusive: 18.5 µM [inhibitor, single point]	
COc1ccc2oc(=O)c(-c3cn4ccc(C)cc4n3)cc2c1	inconclusive: 18.5 µM [inhibitor, single point]	
CCOC(=O)c1cc(-c2ccccc2)sc1NC(=O)CC	active: 2.33 µM	
N#CC(C#N)=NNc1ccc(S(=O)(=O)N2CCCCC2)cc1	inconclusive: 5.86 µM [inhibitor, partial curve, poor fit]	
C=CCS/C(=N\n1cnc2ccccc2c1=O)N1CCCCC1	inconclusive: 0.0828 µM [inhibitor, full curve, poor fit]	
COc1cc(OC)c(NC(=O)Cn2cccc2)cc1Cl	inconclusive: 18.5 µM [inhibitor, single point]	
CON/C=N/C(=S)Nc1ncc(C(F)(F)F)cc1Cl	inconclusive: 7.38 µM [inhibitor, partial curve]	
C=CCc1cc(/C=N/n2cnnc2)cc(OCC)c1O	active: 8.28 µM	
CC(C)(C)C1=Nn2c(nnc2-c2ccco2)SC1	inconclusive: 14.7 µM [inhibitor, partial curve]	

SMILES	Potency	activity change, negative = inhibition
Cc1c(NC(=O)c2nn(CC(C)C)c(=O)c3ccccc23)c(=O)n(-c2ccccc2)n1C	inconclusive: 10.4 µM [inhibitor, partial curve]	
CC(=O)c1ccc(NC(=O)[C@@H]2CCCN2C2=NS(=O)(=O)c3ccccc32)cc1		inactive: -30.3%
Cc1cccc(C)c1NC(=O)C(NC(=O)c1ccccn1)c1ccccc1[N+](=O)[O-] (stereo not given)	inconclusive: 18.5 µM [inhibitor, single point]	
CNC(=O)CSc1nnc(-c2ccco2)n1-c1ccccc1OC	inconclusive: 13.1 µM [inhibitor, partial curve, poor fit]	
S=c1[nH]c(-c2ccccc2)cn1/N=C/c1ccncc1	inconclusive: 18.5 µM [inhibitor, single point]	
CN1CCC(N(C)S(=O)(=O)c2ccc(NC(=O)c3cccc(C#N)c3)cc2)CC1	inconclusive: 18.5 µM [inhibitor, single point]	
COc1ccc(S(=O)(=O)Nc2cc(C)on2)cc1OC	inconclusive: 18.5 µM [inhibitor, single point]	
CC1CCc2c(sc3nc(SCC(=O)NCc4ccco4)nc(N)c23)C1 (stereo not given)		inactive: 2.51% [at 5.75 µM]
O=C(N/N=C/c1cccn1-c1ccc(O)cc1)c1cccc2ccccc12	inconclusive: 18.5 µM [inhibitor, single point]	
Cc1ccc(-n2c(SCC(=O)N3Cc4ccccc4CC3C(=O)O)nnc2-c2cccnc2)c(C)c1 (stereo not given)	inconclusive: 18.5 µM [inhibitor, single point]	
CC1CCCCN1C(=O)COC(=O)CNC(=O)c1ccc(Cl)cc1Cl (stereo not given)		inactive: 6.58%
CS(=O)(=O)N1CCN(Cc2ccc(C(F)(F)F)cc2)CC1	active: 9.28 µM	
CC(CNC(=O)CN(C)CC(=O)Nc1ccccc1Br)c1ccccc1 (stereo not given)		inactive: -2.7%
O=C(Cc1csc(N2CCOCC2)n1)N/N=C/c1ccc(O)c(O)c1O		inactive: 0.716%
CC(C)Cc1cc(C(=O)N2CCC(N3CCC(C(=O)NC4CC4)CC3)CC2)n[nH]1		inactive: -27.4%
O=c1c2cc(Br)ccc2[nH]c(=S)n1Cc1cccnc1	inconclusive: 0.0828 µM [inhibitor, full curve, poor fit]	
CCCCNC(=O)N(O)C1N(/N=C/c2ccco2)C(=S)SC1(C)C (stereo not given)	inconclusive: 5.22 µM [inhibitor, single point]	
COc1ccc(-c2cc(C(=O)Nc3ccc(C)c(C)c3)no2)cc1	inconclusive: 3.29 µM [inhibitor, partial curve]	
CCCCSc1ncc(C(=O)OCC)c(N)n1	inconclusive: 13.1 µM [inhibitor, single point]	
O=C(Nc1ccc(Oc2cccc3ccccc23)cc1)c1ccco1		inactive: 16.2%
COc1ccc(OC)c(C2=Nn3c(nnc3-c3cccc(OC(C)C)c3)SC2)c1	inconclusive: 8.28 µM [inhibitor, partial curve, poor fit]	
CC1CCc2nc(NC(=O)C3COc4ccccc4O3)sc2C1 (stereo not given)		inactive: 180%
CCn1cc(Br)c(C(=O)NC(=S)Nc2ccc(C(=O)OC)cc2)n1		inactive: 10.2%
O=C(NN=C1CCCCCC1)c1ccncc1	inconclusive: 4.15 µM [inhibitor, single point]	

Full records, looked up by structure.
CS(=O)(=O)N1CCN(Cc2ccc(C(F)(F)F)cc2)CC1 is listed as Potency: active: 9.28 µM
O=C(Cc1csc(N2CCOCC2)n1)N/N=C/c1ccc(O)c(O)c1O is listed as activity change, negative = inhibition: inactive: 0.716%

Compounds above that contain fluorine:
SMILES	Potency	activity change, negative = inhibition
CON/C=N/C(=S)Nc1ncc(C(F)(F)F)cc1Cl	inconclusive: 7.38 µM [inhibitor, partial curve]	
CS(=O)(=O)N1CCN(Cc2ccc(C(F)(F)F)cc2)CC1	active: 9.28 µM	

(more compounds)

SMILES	Potency	activity change, negative = inhibition
CCCn1c(=O)[nH]c(=O)c2c1nc(-c1ccc(OC(F)F)c(OC)c1)n2CCOC	inconclusive: 13.1 µM [inhibitor, single point]	
C/C(=N\Nc1nncc2ccccc12)c1ccc(C(C)(C)C)cc1	inconclusive: 16.5 µM [inhibitor, single point]	
Cc1cccc(Nc2c(-c3ccc(O)cc3)nc3ncccn23)c1	inconclusive: 7.38 µM [inhibitor, partial curve, poor fit]	
COc1ccc(CN2CCN(Cc3cccn3-c3ncccn3)CC2CCO)c(C)c1C (stereo not given)	inconclusive: 8.28 µM [inhibitor, single point]	
CC(C)(C)OC(=O)N1CCC[C@H]1c1nnc(SCc2ccccc2Cl)o1	inconclusive: 18.5 µM [inhibitor, single point]	
COc1cccc(C(=O)NC2CC(C)(C)Cc3c2cnn3-c2cccc(F)c2)c1OC (stereo not given)	inconclusive: 18.5 µM [inhibitor, single point]	
COc1ccccc1Nc1ccc(C(=O)O)cc1[N+](=O)[O-]	inconclusive: 11.7 µM [inhibitor, single point]	
COC(=O)c1c(NC(=O)c2cccc(S(=O)(=O)N3CCN(C)CC3)c2)sc(C)c1C	active: 11.7 µM	
COc1ccc(CCNC(=O)C2CCN(S(=O)(=O)c3ccc4c(c3)oc(=O)n4C)CC2)cc1OC	inconclusive: 1.04 µM [inhibitor, full curve]	
CCN(CC)C(=O)CC(c1ccc(F)cc1)c1ccc(OC)cc1 (stereo not given)	inconclusive: 13.1 µM [inhibitor, single point]	
CN(CCOC(=O)CN1C(=O)c2ccccc2C1=O)C1=NS(=O)(=O)c2ccccc21		inactive: 12.3%
Cc1ccccc1-c1nnc(SCC(=O)NCC2CCCO2)o1 (stereo not given)	inconclusive: 18.5 µM [inhibitor, partial curve, poor fit]	
COc1ccc(/C=N/NC(=O)c2cccnc2)cc1CN1CCCc2ccccc21		inactive: -16.9%
O=S(=O)(Nc1ncccn1)c1ccc(NC(=S)N2CCN(Cc3ccc(F)cc3Cl)CC2)cc1	inconclusive: 14.7 µM [inhibitor, partial curve, poor fit]	
O=C(Nc1ccccc1C(=O)NCc1ccccc1)c1ccco1	active: 13.1 µM	
COc1ccc(/C=C/C(=O)NCC(=O)N=Nc2c(O)[nH]c3ccc([N+](=O)[O-])cc23)cc1		inactive: 40%
COc1cc2nc(=S)n(CCCN3CCOCC3)c(N)c2cc1OC		inactive: -10.5%
CC(C)CC(=O)Nc1ccc(Oc2ccc3c(c2)C(=O)NC3=O)cc1	active: 13.1 µM	
O=C1NC2=C(CCc3ccccc32)C(c2ccccc2)N1 (stereo not given)	inconclusive: 0.0329 µM [inhibitor, full curve]	
C=CCNC(=O)/C(C#N)=C/c1cn(-c2ccccc2)nc1-c1ccc(OC)c([N+](=O)[O-])c1	inconclusive: 9.28 µM [inhibitor, single point]	
Cc1ncc(CN2CCCC(C(=O)c3cccc(OC(C)C)c3)C2)s1 (stereo not given)	inconclusive: 18.5 µM [inhibitor, single point]	
COC(=O)c1cnc(Oc2ccc(NC(=O)NC(=O)c3c(OC)cccc3OC)cc2)cc1C(F)(F)F	inconclusive: 3.7 µM [inhibitor, single point]	
